Results are given in words; binding and its absence hold for the method and conditions named. Some results given as binding are weak or reduced against the parent protein; the word gives no strength.
Assays:
DnaB (E. coli) [1] = target: DnaB (E. coli) (UniProt P0ACB0); assay: HDX-MS; DnaB, DnaC or the isolated BC complex in Buffer A with ATP or ATPγS diluted 10-fold into D2O buffer at 20°C; quench with formic acid, online pepsin digestion, ESI-MS; both purified
DnaB K431A (E. coli) = DnaB K431A (E. coli) (UniProt P0ACB0); assay: ELISA; ELISA that measures the direct interaction of DnaB with DnaC (Supplementary Figure S4C); format not shown
DnaB (E. coli) [2] = target: DnaB (E. coli) (UniProt P0ACB0); assay: as above
DnaB D291A (E. coli) = DnaB D291A (E. coli) (UniProt P0ACB0); assay: as above
DnaB R296A (E. coli) = DnaB R296A (E. coli) (UniProt P0ACB0); assay: as above

The chains behind the UniProt entries cited, without tags or fusion partners. Where a name states a change or a piece, a line headed by the entry shows the natural chain unless it says otherwise.
UniProt P0ACB0: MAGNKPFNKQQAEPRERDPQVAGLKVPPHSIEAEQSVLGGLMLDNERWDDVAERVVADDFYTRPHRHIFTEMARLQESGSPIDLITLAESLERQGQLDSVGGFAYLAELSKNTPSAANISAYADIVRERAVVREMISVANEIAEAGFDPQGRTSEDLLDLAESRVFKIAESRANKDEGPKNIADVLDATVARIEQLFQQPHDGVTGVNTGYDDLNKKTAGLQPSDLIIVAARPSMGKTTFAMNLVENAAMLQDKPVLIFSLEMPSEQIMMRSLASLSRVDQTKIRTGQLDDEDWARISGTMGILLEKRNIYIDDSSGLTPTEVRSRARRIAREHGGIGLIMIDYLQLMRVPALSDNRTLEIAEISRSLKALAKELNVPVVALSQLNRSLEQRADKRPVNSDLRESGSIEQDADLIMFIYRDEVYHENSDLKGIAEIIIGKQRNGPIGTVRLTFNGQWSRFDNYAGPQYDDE

Measured: binding

B1: DnaC (protein, UniProt P0AEF0 1-245)
chain: MKNVGDLMQRLQKMMPAHIKPAFKTGEELLAWQKEQGAIRSAALERENRAMKMQRTFNRSGIRPLHQNCSFENYRVECEGQMNALSKARQYVEEFDGNIASFIFSGKPGTGKNHLAAAICNELLLRGKSVLIITVADIMSAMKDTFRNSGTSEEQLLNDLSNVDLLVIDEIGVQTESKYEKVIINQIVDRRSSSKRPTGMLTNSNMEEMTKLLGERVMDRMRLGNSLWVIFNWDSYRSRVTGKEY
binds: all assays above

From publication PMC4705694
